Data as given in PubChem BioAssay AID1487 (National Center for Advancing Translational Sciences (NCATS), 2009).
Some of the results follow. The main result of the screen is listed elsewhere. These columns were measured beside it and carry no call. Compounds called inactive in the main read-out are mostly missing here. The note in brackets gives the kind of curve behind each potency; many fits are weak.

Assay: qHTS Assay for Modulators of Lamin A Splicing
Settings: HeLa LMNA splicing GFP/RFP minigene ratio, 48 h
Procedure, shortened: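 Read-out is the ratio of GFP to DsRed2 object intensity, acquired by 488 nm laser-scanning cytometry on HeLa lamin A-EGFP minigene reporter cells. Compound incubation 48 hrs at 37 °C in Opti-MEM with 2% FBS; DMSO 0.5% final.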

[1] = measured here: GFP splicing reporter channel
[2] = measured here: RFP viability control channel

Compound | AC50 [1] | AC50 [2]
Cc1ccc(OCCNC(=O)c2cc(C(=O)NCCOc3ccc(C)cc3)cc([N+](=O)[O-])c2)cc1 | 22.4 µM [rising, single point] | 35.5 µM [rising, single point]
COc1c(Br)cc2c(C)c(C(=O)O)oc2c1Br | 14.1 µM [rising, single point] | 
O=C(Oc1ccc2ccccc2c1Cl)N1CCCCCC1 |  | 17.8 µM [rising, partial curve, poor fit]
C[n+]1ccccc1COc1ccc(C(C)(C)C)cc1 | 11.2 µM [rising, partial curve, poor fit] | 12.6 µM [rising, partial curve]
OC(CON=C1c2ccccc2-c2ccccc21)CN1CCNCC1 (stereo unspecified) |  | 31.6 µM [rising, single point]
CC(=O)Nc1ccc(C(=O)Nc2cc(C(F)(F)F)ccc2-n2cnc3ccccc32)cc1 | 12.6 µM [rising, single point] | 17.8 µM [rising, single point]
CC(C)(C)c1cc(CN2CCN(CCO)CC2)cc(C(C)(C)C)c1O |  | 11.2 µM [rising, partial curve]
O=S(=O)(NCC(c1ccco1)S(=O)(=O)c1cccs1)c1ccc(Cl)cc1 (stereo unspecified) |  | 8.91 µM [rising, partial curve]
CC(=O)c1cccc(NS(=O)(=O)c2cc(-c3cnc(C4CC4)o3)ccc2C)c1 |  | 2.51 µM [rising, full curve, poor fit]
COc1cccc(C(=O)Nc2nc(-c3ccc4c(c3)OCO4)cs2)c1 |  | 12.6 µM [rising, partial curve]
N=C1/C(=C/c2cccn2CCOc2ccccc2)C(=O)N=C2SC=C(c3ccccc3)N12 |  | 17.8 µM [rising, single point]
COc1ccc(CNc2nc(-c3ccccc3CN(C)C)nc3ccccc23)c(OC)c1 | 35.5 µM [rising, single point] | 25.1 µM [rising, single point]
CN(C)S(=O)(=O)N1CCN(c2ccc([N+](=O)[O-])c(N3CCOCC3)c2)CC1 | 35.5 µM [falling, partial curve, poor fit] | 35.5 µM [falling, partial curve, poor fit]
CN(Cc1nccn1C)C(=O)CCc1nnc(CCC2CCCCC2)o1 | 0.0562 µM [falling, full curve, poor fit] | 0.00447 µM [falling, full curve, poor fit]
Cc1cc(C(=O)CN2C(=O)CN(C)C2=O)c(C)n1-c1cccc(S(=O)(=O)N2CCOCC2)c1 | 20 µM [falling, partial curve, poor fit] | 
